PubChem BioAssay AID1259425 | University of Nebraska Medical Center | 2018

Aim: 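Find knockdowns that reproduce the gene expression pattern seen when KSR1 is lost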 (primary screen)
Cells: HCT116 human colon cancer cells
Reagents: siRNA pool against human genes, 50 nM siRNA
Detection: 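After 50 nM siRNA pool, branched-DNA assay measures six marker transcripts per well, minus blank, normalised to the geometric mean of two housekeeping transcripts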
Reading the numbers: BNIP3L mRNA: higher = more BNIP3L transcript after knockdown
The whole screen tested about 14,000 reagents; below is an unselected part. Not all columns of the deposit are shown. No sequences are given here. Not stated in the record: the time to read-out.

For CA10 the deposit lists BNIP3L mRNA, set 1 = 0.323.
Silencing of ADCY3 resulted in: BNIP3L mRNA, set 1 = 0.109.
With knock-down of SOBP, the screen gave BNIP3L mRNA, set 1 = 0.138.
For SIRT7, the entry reads BNIP3L mRNA, set 1 = 0.0571.
Silencing of PAK3 resulted in: BNIP3L mRNA, set 1 = 0.0696.
With knock-down of TUBB, the screen gave BNIP3L mRNA, set 1 = 0.0979.
Depletion of SMIM8 gave: BNIP3L mRNA, set 1 = 0.0983.
With knock-down of SDHAF3 the results were BNIP3L mRNA, set 1 = 0.114.
CH25H scored BNIP3L mRNA, set 1 = 0.14.
SCYL2 showed BNIP3L mRNA, set 1 = 0.0948.
After knock-down of SLC25A19, the screen gave BNIP3L mRNA, set 1 = 0.205.
For TCF4, the values are BNIP3L mRNA, set 1 = 0.0873.
Silencing of TF came out at: BNIP3L mRNA, set 1 = 0.028.
Depletion of VDAC3 resulted in: BNIP3L mRNA, set 1 = 0.0949.
With knock-down of TREM2, the screen gave BNIP3L mRNA, set 1 = 0.0831.
For WNT6, the values are BNIP3L mRNA, set 1 = 0.0627.
TAS2R60 scored BNIP3L mRNA, set 1 = 0.209.
After knock-down of UBE4A, the record shows BNIP3L mRNA, set 1 = 0.0681.
After knock-down of PTER, the record shows BNIP3L mRNA, set 1 = 0.179.
For RAB29, the values are BNIP3L mRNA, set 1 = 0.136.
Knock-down of FOXJ3 resulted in: BNIP3L mRNA, set 1 = 0.154.
With knock-down of CAPS, the screen gave BNIP3L mRNA, set 1 = 0.118.
Knock-down of UBA2 came out at: BNIP3L mRNA, set 1 = 0.313.
ZNF586 showed BNIP3L mRNA, set 1 = 0.168.
KCNA1 scored BNIP3L mRNA, set 1 = 0.0759.
Silencing of RSPO3 resulted in: BNIP3L mRNA, set 1 = 0.0622.
Against PNMA6A the deposit lists BNIP3L mRNA, set 1 = 0.394.
After knock-down of C1orf198 the results were BNIP3L mRNA, set 1 = 0.139.
